Laboratory results as given in PubChem BioAssay AID344 (DTP/NCI, 2004).
Toxic doses and inconclusive results are not listed. How the source made its calls: active means survival T/C of 150% or more; inactive means T/C below 125% in these data.

System: mice, LPC-1 plasma cell tumor ip, median survival T/C
Experiment: NCI In Vivo Anticancer Drug Screen. Data for tumor model Lieberman Plasma Cell No. 1 (LPC-1) (intraperitoneal) in unknown mice
Conditions: endpoint: median survival time, schedule: Q01DX028 (sc), vehicle: water, higher = longer survival
Description: The antitumor activity of compounds was measured in mice bearing transplantable tumors. Survival or tumor size were measured and the results are expressed as the measurement made in the treated group (T) divided by the measurement made in the vehicle treated control group (C). The tumor model used in this assay is Lieberman Plasma Cell No. 1 (LPC-1) (intraperitoneal) in unknown mice

Measured: T/C

COc1cc2c(c(OC)c1OC)-c1ccc(OC)c(=O)cc1[C@@H](N)CC2
inactive: dose: 0.25 mg/kg/injection 110 % of control | dose: 0.5 mg/kg/injection 102 % of control | dose: 1.0 mg/kg/injection 94 % of control | dose: 2.0 mg/kg/injection 112 % of control | dose: 4.0 mg/kg/injection 105 % of control
